Results published in article PMC13393275.
These are yes or no findings as the source states them, for the method shown. In cells and extracts the contact can be indirect. Here binding means that the protein was enriched with, or labelled near, the bait; the list need not be complete.

B1: Phospholipid-transporting ATPase IG (protein, UniProt Q8NB49 1-1132)
chain: MQMVPSLPPASECAGEEKRVGTRTVFVGNHPVSETEAYIAQRFCDNRIVSSKYTLWNFLPKNLFEQFRRIANFYFLIIFLVQVTVDTPTSPVTSGLPLFFVITVTAIKQGYEDCLRHRADNEVNKSTVYIIENAKRVRKESEKIKVGDVVEVQADETFPCDLILLSSCTTDGTCYVTTASLDGESNCKTHYAVRDTIALCTAESIDTLRAAIECEQPQPDLYKFVGRINIYSNSLEAVARSLGPENLLLKGATLKNTEKIYGVAVYTGMETKMALNYQGKSQKRSAVEKSINAFLIVYLFILLTKAAVCTTLKYVWQSTPYNDEPWYNQKTQKERETLKVLKMFTDFLSFMVLFNFIIPVSMYVTVEMQKFLGSFFISWDKDFYDEEINEGALVNTSDLNEELGQVDYVFTDKTGTLTENSMEFIECCIDGHKYKGVTQEVDGLSQTDGTLTYFDKVDKNREELFLRALCLCHTVEIKTNDAVDGATESAELTYISSSPDEIALVKGAKRYGFTFLGNRNGYMRVENQRKEIEEYELLHTLNFDAVRRRMSVIVKTQEGDILLFCKGADSAVFPRVQNHEIELTKVHVERNAMDGYRTLCVAFKEIAPDDYERINRQLIEAKMALQDREEKMEKVFDDIETNMNLIGATAVEDKLQDQAAETIEALHAAGLKVWVLTGDKMETAKSTCYACRLFQTNTELLELTTKTIEESERKEDRLHELLIEYRKKLLHEFPKSTRSFKKAWTEHQEYGLIIDGSTLSLILNSSQDSSSNNYKSIFLQICMKCTAVLCCRMAPLQKAQIVRMVKNLKGSPITLSIGDGANDVSMILESHVGIGIKGKEGRQAARNSDYSVPKFKHLKKLLLAHGHLYYVRIAHLVQYFFYKNLCFILPQFLYQFFCGFSQQPLYDAAYLTMYNICFTSLPILAYSLLEQHINIDTLTSDPRLYMKISGNAMLQLGPFLYWTFLAAFEGTVFFFGTYFLFQTASLEENGKVYGNWTFGTIVFTVLVFTVTLKLALDTRFWTWINHFVIWGSLAFYVFFSFFWGGIIWPFLKQQRMYFVFAQMLSSVSTWLAIILLIFISLFPEILLIVLKNVRRRSARRNLSCRRASDSLSARPSVRPLLLRTFSDESNVL
B2: Anion exchange protein 2 (protein, UniProt P04920 1-1241)
chain: MSSAPRRPAKGADSFCTPEPESLGPGTPGFPEQEEDELHRTLGVERFEEILQEAGSRGGEEPGRSYGEEDFEYHRQSSHHIHHPLSTHLPPDARRRKTPQGPGRKPRRRPGASPTGETPTIEEGEEDEDEASEAEGARALTQPSPVSTPSSVQFFLQEDDSADRKAERTSPSSPAPLPHQEATPRASKGAQAGTQVEEAEAEAVAVASGTAGGDDGGASGRPLPKAQPGHRSYNLQERRRIGSMTGAEQALLPRVPTDEIEAQTLATADLDLMKSHRFEDVPGVRRHLVRKNAKGSTQSGREGREPGPTPRARPRAPHKPHEVFVELNELLLDKNQEPQWRETARWIKFEEDVEEETERWGKPHVASLSFRSLLELRRTLAHGAVLLDLDQQTLPGVAHQVVEQMVISDQIKAEDRANVLRALLLKHSHPSDEKDFSFPRNISAGSLGSLLGHHHGQGAESDPHVTEPLMGGVPETRLEVERERELPPPAPPAGITRSKSKHELKLLEKIPENAEATVVLVGCVEFLSRPTMAFVRLREAVELDAVLEVPVPVRFLFLLLGPSSANMDYHEIGRSISTLMSDKQFHEAAYLADEREDLLTAINAFLDCSVVLPPSEVQGEELLRSVAHFQRQMLKKREEQGRLLPTGAGLEPKSAQDKALLQMVEAAGAAEDDPLRRTGRPFGGLIRDVRRRYPHYLSDFRDALDPQCLAAVIFIYFAALSPAITFGGLLGEKTQDLIGVSELIMSTALQGVVFCLLGAQPLLVIGFSGPLLVFEEAFFSFCSSNHLEYLVGRVWIGFWLVFLALLMVALEGSFLVRFVSRFTQEIFAFLISLIFIYETFYKLVKIFQEHPLHGCSASNSSEVDGGENMTWAGARPTLGPGNRSLAGQSGQGKPRGQPNTALLSLVLMAGTFFIAFFLRKFKNSRFFPGRIRRVIGDFGVPIAILIMVLVDYSIEDTYTQKLSVPSGFSVTAPEKRGWVINPLGEKSPFPVWMMVASLLPAILVFILIFMETQITTLIISKKERMLQKGSGFHLDLLLIVAMGGICALFGLPWLAAATVRSVTHANALTVMSKAVAPGDKPKIQEVKEQRVTGLLVALLVGLSIVIGDLLRQIPLAVLFGIFLYMGVTSLNGIQFYERLHLLLMPPKHHPDVTYVKKVRTLRMHLFTALQLLCLALLWAVMSTAASLAFPFILILTVPLRMVVLTRIFTDREMKCLDANEAEPVFDEREGVDEYNEMPMPV
B3: Eukaryotic translation initiation factor 5B (protein, UniProt O60841 1-1220)
chain: MGKKQKNKSEDSTKDDIDLDALAAEIEGAGAAKEQEPQKSKGKKKKEKKKQDFDEDDILKELEELSLEAQGIKADRETVAVKPTENNEEEFTSKDKKKKGQKGKKQSFDDNDSEELEDKDSKSKKTAKPKVEMYSGSDDDDDFNKLPKKAKGKAQKSNKKWDGSEEDEDNSKKIKERSRINSSGESGDESDEFLQSRKGQKKNQKNKPGPNIESGNEDDDASFKIKTVAQKKAEKKERERKKRDEEKAKLRKLKEKEELETGKKDQSKQKESQRKFEEETVKSKVTVDTGVIPASEEKAETPTAAEDDNEGDKKKKDKKKKKGEKEEKEKEKKKGPSKATVKAMQEALAKLKEEEERQKREEEERIKRLEELEAKRKEEERLEQEKRERKKQKEKERKERLKKEGKLLTKSQREARARAEATLKLLQAQGVEVPSKDSLPKKRPIYEDKKRKKIPQQLESKEVSESMELCAAVEVMEQGVPEKEETPPPVEPEEEEDTEDAGLDDWEAMASDEETEKVEGNKVHIEVKENPEEEEEEEEEEEEDEESEEEEEEEGESEGSEGDEEDEKVSDEKDSGKTLDKKPSKEMSSDSEYDSDDDRTKEERAYDKAKRRIEKRRLEHSKNVNTEKLRAPIICVLGHVDTGKTKILDKLRHTHVQDGEAGGITQQIGATNVPLEAINEQTKMIKNFDRENVRIPGMLIIDTPGHESFSNLRNRGSSLCDIAILVVDIMHGLEPQTIESINLLKSKKCPFIVALNKIDRLYDWKKSPDSDVAATLKKQKKNTKDEFEERAKAIIVEFAQQGLNAALFYENKDPRTFVSLVPTSAHTGDGMGSLIYLLVELTQTMLSKRLAHCEELRAQVMEVKALPGMGTTIDVILINGRLKEGDTIIVPGVEGPIVTQIRGLLLPPPMKELRVKNQYEKHKEVEAAQGVKILGKDLEKTLAGLPLLVAYKEDEIPVLKDELIHELKQTLNAIKLEEKGVYVQASTLGSLEALLEFLKTSEVPYAGINIGPVHKKDVMKASVMLEHDPQYAVILAFDVRIERDAQEMADSLGVRIFSAEIIYHLFDAFTKYRQDYKKQKQEEFKHIAVFPCKIKILPQYIFNSRDPIVMGVTVEAGQVKQGTPMCVPSKNFVDIGIVTSIEINHKQVDVAKKGQEVCVKIEPIPGESPKMFGRHFEATDILVSKISRQSIDALKDWFRDEMQKSDWQLIVELKKVFEII
B4: Cystathionine beta-synthase (protein, UniProt P35520 1-551)
chain: MPSETPQAEVGPTGCPHRSGPHSAKGSLEKGSPEDKEAKEPLWIRPDAPSRCTWQLGRPASESPHHHTAPAKSPKILPDILKKIGDTPMVRINKIGKKFGLKCELLAKCEFFNAGGSVKDRISLRMIEDAERDGTLKPGDTIIEPTSGNTGIGLALAAAVRGYRCIIVMPEKMSSEKVDVLRALGAEIVRTPTNARFDSPESHVGVAWRLKNEIPNSHILDQYRNASNPLAHYDTTADEILQQCDGKLDMLVASVGTGGTITGIARKLKEKCPGCRIIGVDPEGSILAEPEELNQTEQTTYEVEGIGYDFIPTVLDRTVVDKWFKSNDEEAFTFARMLIAQEGLLCGGSAGSTVAVAVKAAQELQEGQRCVVILPDSVRNYMTKFLSDRWMLQKGFLKEEDLTEKKPWWWHLRVQELGLSAPLTVLPTITCGHTIEILREKGFDQAPVVDEAGVILGMVTLGNMLSSLLAGKVQPSDQVGKVIYKQFKQIRLTDTLGRLSHILEMDHFALVVHEQIQYHSTGKSSQRQMVFGVVTAIDLLNFVAAQERDQK

What follows are binders tested against T1, FRS2-mNeonGreen (human) (UniProt Q8WU20) (assay: affinity purification with mass spectrometry; mNeonGreen-Trap IP from bFGF-stimulated (50 ng/mL, 5 min) UW228 FRS2-mNG cells against UW228 WT; on-bead digestion, DIA LC-MS/MS, SAINTexpress; hits log2FC >= 1 and bFDR <= 0.05; n = 3).
T1 sequence: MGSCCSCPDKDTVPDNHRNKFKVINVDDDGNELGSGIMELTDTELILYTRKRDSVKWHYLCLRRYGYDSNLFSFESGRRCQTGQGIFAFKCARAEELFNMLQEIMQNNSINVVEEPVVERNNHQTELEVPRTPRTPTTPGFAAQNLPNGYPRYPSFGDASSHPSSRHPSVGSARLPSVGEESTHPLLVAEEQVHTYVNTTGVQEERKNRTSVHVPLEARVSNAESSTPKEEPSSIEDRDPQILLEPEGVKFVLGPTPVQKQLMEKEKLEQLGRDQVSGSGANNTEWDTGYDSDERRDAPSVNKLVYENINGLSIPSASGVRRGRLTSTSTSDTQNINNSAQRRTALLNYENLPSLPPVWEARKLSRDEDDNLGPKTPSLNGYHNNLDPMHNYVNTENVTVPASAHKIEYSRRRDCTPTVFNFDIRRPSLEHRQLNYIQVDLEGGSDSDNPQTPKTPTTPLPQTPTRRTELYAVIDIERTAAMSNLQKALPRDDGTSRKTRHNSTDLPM

binding, binds:
B1
B2
B3
B4
